The results in this text go back to US20080227220A1, “Lateral Flow Binding Assay” (priority 2004, published 2008).

In this series the test system is antibiotic binding protein (PBP). The experiment in a line: Lateral flow test strip for detection of β-lactams in milk (sequential assay). Also noted: species or system Bacillus stearothermophilus. The conditions noted are these: milk sample 0.1 mL; 5 min then 10 min incubation at 64° C.; capture line vs reference line read visually.

`CC(=O)OCC1=C(C(=O)O)N2C(=O)[C@@H](NC(=O)CSc3ccncc3)[C@H]2SC1` [Cephapirin, cephapirin]: the Sensitivity amounted to 4 ppb.
